Here are results for 25 substances from US20220062371A1 (DEBIOPHARM RESEARCH & MANUFACTURING S.A., priority 2017, published 2022).

Some peptides are written in HELM: one residue between dots, names in brackets for other building blocks, links after the first $.

The data set is described as follows: general procedure: Fmoc solid-phase peptide synthesis; Fmoc-Xxx-Wang resin (loading 0.60 mmol/g; Bachem); HBTU, HATU. The settings on record: whole synthesis.
For the substance ACit-Lys(PEG4-Mal-Cys-Ac)-Phe-OH, the “purity (crude or final not stated)” value stood at 96%.

Take ACit-Phe-Lys(PEG4-Mal-Cys-Ac)-OH: the “purity (crude or final not stated)” value is 96%.

As to AF-Arg-Lys(PEG4-Mal)-Phe-OH, the “purity (crude or final not stated)” value came to 96%.

As for AF-Arg-Lys(PEG4-Mal-Cys-Ac)-Phe-OH, the “purity (crude or final not stated)” value is given as 94%.

With AF-Arg-Phe-Lys(PEG4-Mal)-OH, the “purity (crude or final not stated)” value worked out at 98%.

As to AF-Arg-Phe-Lys(PEG4-Mal-Cys-Ac)-OH, the “purity (crude or final not stated)” value was determined as 90%.

For the substance “AF-Cit-Lys(Mal-DM1)-Phe-Lys(PEG4-Mal-Cys-Ac)-Phe-OH (SEQ ID NO: 65)”, the “purity (crude or final not stated)” value was found to be 89%.

With AF-Cit-Lys(PEG4-Mal-Cys-Ac)-Phe-OH, the “purity (crude or final not stated)” value stood at 90%.

For “Ac-Cys-Ma-PEG5-Phe-Cit-Lys(Mcc-DM1)-Tyr-OH (SEQ ID NO: 61)”, the “purity (crude or final not stated)” value is on record as 80%.

In the case of “Ac-Cys-Mal-PEG4-Phe-Arg-Lys(Mal-DM1)-Arg-Lys(AF)-Phe-OH (SEQ ID NO: 64)”, the “purity (crude or final not stated)” value is 90%.

As for “Ac-Cys-Mal-PEG4-Phe-Lys-Lys(AF)-Phe-OH (SEQ ID NO: 52)”, the “purity (crude or final not stated)” value turned out to be 98%.

Consider “Ac-Cys-Mal-PEG4-[Phe-Lys-Lys(Mal-DM1)-Phe]2-OH (SEQ ID NO: 63)”, for which the “purity (crude or final not stated)” value stood at 89%.

On to “Ac-Cys-Mal-[PEG5-Lys(AF-Cit-Lys(Y)-Phe-OH)]2-Gly-NH2”, for which the “purity (crude or final not stated)” value was 85%.

In the case of “Arg-PEG4-Phe-Arg-Dab(CO-CPT)-Phe-OH (SEQ ID NO: 49)”, the “purity (crude or final not stated)” value is reported as 83%.

In the case of “Arg-PEG4-Phe-Arg-Dap(CO-CPT)-Phe-OH (SEQ ID NO: 48)”, the “purity (crude or final not stated)” value is 96%.

On to Arg-PEG4-Phe-Arg-Glu(Sar-OCPT)-Phe-OH, for which the “purity (crude or final not stated)” value came out at 94%.

For “Arg-PEG4-Phe-Arg-Ser(CO-CPT)-Phe-OH (SEQ ID NO: 50)”, the “purity (crude or final not stated)” value came to 90%.

For “Ma-PEG5-Phe-Cit-Lys(Mcc-DM1)-Cit-OH (SEQ ID NO: 60)”, the “purity (crude or final not stated)” value is 97%.

Consider “Mal-PEG4-Phe-Lys-Lys(AF)-Phe-OH (SEQ ID NO: 53)”, for which the “purity (crude or final not stated)” value came to 95%.

As for “PEPTIDE1{[Mal].F.K.K.F}|PEPTIDE2{[Mal].[PEG4]}|PEPTIDE3{[ac].C}|CHEM1{[DM1]}$PEPTIDE1,PEPTIDE2,4:R3-2:R2|PEPTIDE2,PEPTIDE3,1:R3-2:R3|PEPTIDE1,CHEM1,1:R3-1:R1$$$V2.0”, the “purity (crude or final not stated)” value is reported as 98%.

Turning to “PEPTIDE1{[Mal].F.[Cit].F.K}|PEPTIDE2{[Mal].[PEG4]}|PEPTIDE3{[ac].C}|CHEM1{[DM1]}$PEPTIDE1,PEPTIDE2,5:R3-2:R2|PEPTIDE2,PEPTIDE3,1:R3-2:R3|PEPTIDE1,CHEM1,1:R3-1:R1$$$V2.0”, the “purity (crude or final not stated)” value came to 94%.

“PEPTIDE1{[Mal].F.[Cit].K.F}|PEPTIDE2{[Mal].[PEG4]}|PEPTIDE3{[ac].C}|CHEM1{[DM1]}$PEPTIDE1,PEPTIDE2,4:R3-2:R2|PEPTIDE2,PEPTIDE3,1:R3-2:R3|PEPTIDE1,CHEM1,1:R3-1:R1$$$V2.0”: the “purity (crude or final not stated)” value is recorded as 97%.

As for “PEPTIDE1{[Mal].[PEG4].F.K.K.F.F.K}|PEPTIDE2{[ac].C}|CHEM1{[Mal]}|CHEM2{[DM1]}$PEPTIDE1,PEPTIDE2,1:R3-2:R3|PEPTIDE1,CHEM1,5:R3-1:R2|CHEM1,CHEM2,1:R3-1:R1$$$V2.0”, the “purity (crude or final not stated)” value came out at 94%.

As to “PEPTIDE1{[Mal].[PEG4].F.K.K.F}|PEPTIDE2{[ac].C}|CHEM1{[Mal]}|CHEM2{[DM1]}$PEPTIDE1,PEPTIDE2,1:R3-2:R3|PEPTIDE1,CHEM1,5:R3-1:R2|CHEM1,CHEM2,1:R3-1:R1$$$V2.0”, the “purity (crude or final not stated)” value was 94%.

In the case of “PEPTIDE1{[Mcc].F.[Cit].K.Y}|PEPTIDE2{[Ma].[PEG5]}|PEPTIDE3{[ac].C}|CHEM1{[DM1]}$PEPTIDE1,PEPTIDE2,4:R3-2:R2|PEPTIDE2,PEPTIDE3,1:R3-2:R3|PEPTIDE1,CHEM1,1:R3-1:R1$$$V2.0”, the “purity (crude or final not stated)” value was found to be 99%.
